Literature values as cited in patent publication US9724304B2, “Nanospheres for therapeutic agent delivery” (Temple University—Of The Commonwealth System of Higher …, priority 2012, dated 2017).
≈ marks a conversion by molar mass, not a printed value.

Conditions: at 25° C.

Structure (SMILES): COc1ccc2c(c1)c(CC(=O)O)c(C)n2C(=O)c1ccc(Cl)cc1 [IDMC, indomethacin]
- aqueous solubility: 35 µg/mL (≈ 97.8 µM)
